Results as given in publication PMC10434240.
Results are given in words; binding and its absence hold for the method and conditions named. Binding seen in cells or lysates may run through a third protein. Here binding means that the protein was enriched with, or labelled near, the bait; the list need not be complete. Sequences can lack the tags named with a protein.

Sequences of proteins named here, by UniProt entry; tags and fusion partners are left off.
UniProt P90623: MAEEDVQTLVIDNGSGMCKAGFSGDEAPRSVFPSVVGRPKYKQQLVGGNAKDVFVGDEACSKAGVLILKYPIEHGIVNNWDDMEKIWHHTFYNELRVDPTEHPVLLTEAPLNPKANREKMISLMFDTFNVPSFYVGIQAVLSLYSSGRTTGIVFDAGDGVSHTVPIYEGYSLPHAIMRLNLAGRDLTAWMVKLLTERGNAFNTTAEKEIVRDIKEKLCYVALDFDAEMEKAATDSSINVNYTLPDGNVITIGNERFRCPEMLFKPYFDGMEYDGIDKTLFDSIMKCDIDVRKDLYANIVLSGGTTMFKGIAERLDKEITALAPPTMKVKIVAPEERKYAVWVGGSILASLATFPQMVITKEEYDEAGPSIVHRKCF

Target: HA-TvActin (Trichomonas vaginalis) (UniProt P90623)
Assay: affinity purification with mass spectrometry; HA-TvActin immunoprecipitated with anti-HA agarose beads from lysate of transgenic TH17 trophozoites (1% Triton X-100, 5 mM EDTA in TBS, 4°C overnight); SDS-PAGE, LC-MS/MS, label-free emPAI

Binder | binding
T. vaginalis F-actin capping protein subunit α (TvFACPα), endogenous (protein, UniProt A2FE30 1-261) MSESENIKIIKTFLANAPPGEYEQCTAALRSIVNDEDLINRARSETLKTWAEEECIVVDVEDHKVIICKEACQRDGIYVDPVTSSLITYDFESRIATPIGDQANMSDFAKELQEELTAYAKNAYKENAAAGVYDTNNGIVIVLRGSSISLKNFRTGKTVAKYTLSKSGSLEGKIVSIQHFFEKGNAVCQHDGDCNTTCSFGDAKSVVKAIRTFEDEWLADYKTTLEKIGTNVLFQLRRKFPYSKQKINWQQEITVGGGMKC | binds
α-Actinin, putative (protein, UniProt A2DKH3 1-931) MSVRREGLLDDAWEKTQIKVFSRWVQKQLLARQIQFETIETDFEDGTKLLNLLEIIGKEPMPSKWHKQPKMMVQKRENVDLALKYINEVKKIRTVGIGADDIINKNLKLTLGLTWTCINKFMIEEISVEEATARDALLLWAKKNTQGYEHVAVNNFTTSWNTGLAFAALINKFRPNLLDYSALDYNDHKGACEKAFAACKELGIYVYLDPEDVIDTTPDEKSVVTQVAEFFHFFASESKIAAMADKIKRTVAIQKQIDELKNTYIEDAKAAIEKMTVEDEKLKADDYEKTIPGIRGKLASVISYNRDIRPEIVDHRAKAMRSWAALVTKCKSGNRPIPEIPQGLEPEALTNKFNEIEQTSTTRRDELTQELNDMIKKKVEDFMAKCMDIINKCDAIHEEVKTIEGTTAEKKDKVEQKLHEAEDLQPALAELTPLFQELVELRINTLSSQTDDSVNRHHSQLITYIKHLLEQLNGKLFEETNEARINEYNALAQPLYDEAIAFKEEVLAISGELRERRTQFLAKQAEAPTKREHVNEIDPIFDGLEKDSLHLRVNHSPTEIRNVYAVTLQHIITELNKIFEEMVANFDATAVPIIDGITALVTSSHQIPGDAAAVKAQVEENLASLDGFAEKIQALQDPYNELVEFKLNYKVTYTYSDATGELDQARLDLKQIILAKKTFLEEEERKARINNYTVKADEHMNEAHALDGKINSVDGELEPKRQKLYEVREEVNAKKEKAAEELTPIYEDLEKDQLHLEITSTPASINIFFENLIAHIDTLVKEIDAAIAAAKGLEISEEELNEFKDTFKYFDKDKSNSLEYFELKACLTALGEDITDDQAKEYCKKYNSKGEGTALEFDDYVRFMLDHFSKAETTETTMEAFKAIAQNQPVLTDAQLDQYFSAEDAAYLRSQLKQGENGYEFADWVNSLYNQ | binds
α-1,4-Glucan phosphorylase (enzyme, UniProt A2DSX4 1-944) MSKQAQKLHPTIRPFYPDAKPIPTEAKNASLNTLSHKVQESQGEDLEQARHNLLWKLMGEYIPAEKDSVQLSFVNHMEYTLARSRFNLDAFSSYLAVSYSVRDRLIELFNDTQEYFISSKAKQVYYVSAEFLVGRFLRNALLNLELEDLYRKSLAELDVSLDQIYNEEYDPGLGNGGLGRLAACFMDSLATLNLPGWGYGLMYSFGMFKQIIGADGSQLEIPDYWLNFGDPWRIQKPTVCHQVHFYGRCENGVWKPSLTINAVANDFLIPGFGTDNTLALRLWSSKPTVELDEEKFRGGDYFQAITMKQRCENLTSVLYPNDNTYEGKEMRLMQEYFMSSASLQDIIRRLKTHQKQDIRQLPKYAAIQLNDTHPTVMVAECLRILMDEEDMGLLEALEITRKVFSYTCHTLMPEALEKWDVPMFQNMLPRHLEIIYQLNQYYLDDVRAKYHVTDDVIRNLSIIEESNPKKVRMANLAVIGSHMVNGVAAIHSELMKIYVFKDFAQLEPKKFINKTNGVTIRRWLHHCNPGLSQIINRVVGDEKWALNAEGLTALTKKQDDPNFIAEWEAVKLANKQHLAELVKKTTGVELNPEKQLFDIQVKRIHEYKRQQLNIFSIIYRYLNILEMTPAERAKLVPRAMIFGGKAAPGYYAAKKLIKLINNVAKVVNADKNIGDLLKVVYIPNYNVSAAEIIIPGTDVCEQISTAGTEASGTSNMKFAFNGGLIIGTHDGANIEIGDAIGNENVFFFGEVAENVDTYRAAAEHPIPAGLRRVFDTIRTGLFGDVNEYECLIYPVEHGDNYLVAKDFEDYLDAQRRCDEAYKNKEEWTKMSIASTANMARFSSDRTITEYANEVWGIHECKLPVVEPIEASGVQQMGVGSIGGSLRRHQSAAFAEQAPSSNGPTLSKGTYGSLSRKSQIPVPAAQPVQDSKNDDHDGEIEIDYN | binds
Succinate-CoA ligase (ADP-forming) subunit β, mitochondrial (TVAG_259190) (enzyme, UniProt A2EBX0 1-407) MLSSSFARNFNILEWQSKEICAKYNVAAGINLVARSPEEAAEAFRKMNLPAAVIKAQVYCGGRGKGHWLETGFKSGVHFVKSADEAAKIAKEMLGHHLVTKQTGKDGLLCQAVMLSDPVEVKRELYFAILLDRQTQSPVVIASTEGGVEIEEVAAHHPEKIHKFVLDGVEGITEEVAKNISTKLGLTGKAYDNGVVEMQKLWKLFVGSDATQVEVNPLAETTDGRIITVDSKFNFDDSAHYRQKQIFGYRDLKQVSPFEIRAEKYGLNYVPLDGNVACLVNGAGLAMATMDVIKLAGGDPANFLDLGGAASEAAVTEGFTIISQQSHVKAILVNIFGGIVRCDMVAAGVIAAFKKVGLKVPLVVRLEGTNVEAGKKLIRESGLPIISADNLTDAGEKAVKAAKGEKF | binds
6-Phosphofructokinase (TVAG_496160) (enzyme, UniProt A2FR66 1-324) MKNIAILSSGSDNSGINSAIRAVVRSARHAKVHVYGVNYGYIGLRDDSMKIITSRDVSGQMGKAGCFLGTGRPENLFDDDASFKKMLSNIEKKKIEGLVVIGGYTSLTQSKKFVDAGIPTVAIPSTIQDDIVGTDICLGVDSAVNNIVKNVERIRSCESTMDRTFLIRCEGETCGSLALRAGLVSGADLILTPEQECKDINVIVDKLQKVYQSGKTQCICLISRGWKPGCEALAEYLSKHENETDLSVRETIFGYVQRGGAPTGFDRLMGTNMGALAFQTLTSGQTAKMTALSDGQYTIVPYEAFLDQQKKLDPKMLELFDLTK | binds
Pyrophosphate-fructose 6-phosphate 1-phosphotransferase 2 (enzyme, UniProt A2E9H3 1-426) MSTEAPVLGILCGGGPAPGLNGVIAGATLYALRLGWKVIGFMEGFKYLCTGDIETVKAHTIDLTYDIVSRIHFQGGTIIQTSRANPRKSTELQENVRKCLRALKVRYFLTIGGDDTASSAVSVAQGMDGNEISVISCPKTIDNDLPLPADQSTFGFHTARSLGMEIIRNLMVDSKSAPRWFLVEAMGRSAGHLALGMAEASGAHLCLIPEEFKQDEIEFEDVVELVEATILKRLAYGKNYGVCVLAEGLVSKMSKKALYRLFGNREPPTDPHGHILLDDAELARSLSEELLKRLGNLGIRITPKKIGYELRCADPVAFDAVYTRELGYGAIDAFLNGHSAALIVRENGQVKPVQFKDLLDPATGRVRTRLVDVTSQSFKVARVYMWRMSKKDYENKDLVARVAAAGKMTPEAFTEKFAHLTDVVIE | binds
Succinate-CoA ligase (ADP-forming) subunit β, mitochondrial (TVAG_144730) (enzyme, UniProt A2FVK7 1-409) MLSNGSFARNFNILEWQSKEICAKFNVAAGINLVARTPEEAAAAFKKMGLPAAVIKAQVYCGGRGKGHWKETGFKSGVHFVKSADEAAKIAKEMLGHHLVTKQTGADGLLCQAVMLSDPVEVKRELYFAILLDRQTQSPVVIASTEGGVEIEEVAAKHPEKILKFQLDGVEGITRDVAVNISKQLGLTGKAYENGIEEMQKLWKLFVGSDATQVEVNPLAETTDGRIITVDSKFNFDDSAHYRQKQIFGYRDLKQVNPFEIRAEKYGLNYVPLDGNVACLVNGAGLAMATMDVIKLAGGDPANFLDLGGGASEAAVTEGFTIISSQSHVKAILVNIFGGIVRCDMVAAGVIAAFKKVGLKVPLVVRLEGTNVDAGKKLIRESGLPIIPADNLTDAGIKAVKAANGEKLI | binds
T-complex protein 1 subunit delta (protein, UniProt A2DS85 1-536) MSQQSAPAASATNPPAFQGQDRPTDVRMSCILAAKSVADAVRSSLGPRGMDKLIQEKNGEVIITNDGATILKHMGAAHPAAKLMVSMSQAQDVAAGDGTTSVVIFAGAFLSACKTLLERKLHPSLVSDALRIATDEAIKILDQMRIPFGQGEAFTEQEREILIDSARTSLSSKLASQWSDILAPLAVDAVLRVHDGKHVDLNDIRVVQRVGGVIDDSELVDGVVFPHHFQRQSGDARKINNAKIALIQFQISPPKTDMESQVILNDYAQMDRVQREQRKYILNIVNAIAKTGANVILLQKSVLRDAISDTALHFLNKKGIIVVKDIDREEVDFVCRTIGCQPIASVEGLSADKLGFAETVEEVTTAGGAIIKIMGLKKVSKTVTVLLRGSNELIIGEAERSLHDALCVIRSLVYERYLLPGGGAPEVELAIKLAKKADEIGGEIGHCIRAFADSLDIVPYTLAENAGLAPLDVVTQLREAHSSGKMYYGVSVVACGPADMKEEEVLQPYLVTKSAVTFASETVRMILKVDDILATR | binds
